# Assay results as given in the supplement of paper PMC10338343.
# ± gives the standard deviation. This is one part of the list. The uncertainty is large for many entries.
# Test system: EfPiwi piRISC loaded with L1MC piRNA (26 nt)
# Assay: pre-steady-state target cleavage rate (min^-1); guide: L1MC piRNA 5'p-UAACUAAAUACUAUGCAAGCUGUAGG; MIWI and MILI are mouse PIWI proteins and EfPiwi is from a freshwater sponge; tags in brackets are library labels; higher = faster piRNA-guided slicing of the target
# Details: auxiliary factor: none (no Gtsf1)
# Outline: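 Active affinity-purified piRISC (1 nM) loaded with one synthetic guide was mixed with a transcribed, DNA-blocked target RNA library (0.1 nM), with or without 500 nM GTSF1 partner protein, in HEPES–potassium acetate buffer at 33 °C for 0–8 or 0–960 min. Uncleaved targets were sequenced, normalised to depth and to weakly complementary targets, and pooled across three trials, with k3 capped at 0.0001 min^-1. The pre-steady-state cleavage rate was determined with a burst-and-steady-state fit.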
row,Sequence,pre-steady-state target cleavage rate
1,UCCUGGUUCAGGUUGCAUAGUAUUUAGUUA,0.00417 ± 0.0055
2,UCCUGGUUCAGCUUGCAUACUAUUUAGUUA,0.00157 ± 0.0091
3,UCCUGGUACACCUUGCAAAGUAUUUAGUUA,0.000268 ± 0.033
4,UCCUGGAUGUGCUUGCAUUGUAUUUUGUUA,0.000147 ± 0.055
5,UCCUGGAUGUGCUUGCAUACUAUUAAGUUA,0.000478 ± 0.013
6,UCCUGCUACAGCUUGCAUUGUAUUUUGUUA,0.00081 ± 0.0082
7,UCCUGGAUGUCCUUGCAUAGUACUUAGUUA,0.000579 ± 0.011
8,UCCUGGAUGAGCUUGCAAAGUAUUAAGUUA,0.00043 ± 0.021
9,UCCUGGUACAGCAUGCAUAGUAAUUAGUUA,0.000425 ± 0.027
10,UCCUGCUACAGCUUGCAUAGUUUUUUGUUA,0.000761 ± 0.0096
11,UCCUGCUACAGCUUGCAUAGUAUUUGGUUA,0.000924 ± 0.0099
12,UCCUGGAUGAGCUUGCAUAGUCUUUAGUUA,0.0128 ± 0.0056
13,UCCUGGUUCACCUUGCAUAGUAUUUAGUUA,0.00104 ± 0.01
14,UCCUGGAUCAGCUUUCAUAGUAUUUAGUUA,0.000585 ± 0.016
15,UCCUGCUACACCUUGCAAAGUAUUUAGUUA,0.00103 ± 0.0087
16,UCCUGGAUCAGCUUGCAUAGUAUUUAGUGUA,0.00292 ± 0.006
17,UCCUGGAUCAGCUUGCAUAGUAAUUAGUUA,0.00382 ± 0.0043
18,UCCUGGUACUGCUUGCAUAGUAUUUAGAUA,0.00045 ± 0.02
19,UCCUGGAAGACCUUGCAUAGUAUUUAGUUA,0.000565 ± 0.018
20,UCCUGGUACUGCUUGCAUAGUAUUUUGUUA,0.000175 ± 0.081
21,UCCUGGAUCAGCUUGCAUAGUAGUUUAGUUA,0.011 ± 0.0045
22,UCCUGCUACAGCUUGCAUAGUAUUUAGUUG [g2:g25:cont:t1G],0.000678 ± 0.0093
23,UCCUGCUACAGCUAGCUUAGUAUUUAGUUA,0.000915 ± 0.0074
24,UCCUGGAACAGCUUGCAUAGUAUUUAGGUA,0.000763 ± 0.012

# A section from further up, as a working copy:
row,Sequence,pre-steady-state target cleavage rate
13,UCCUGGUUCACCUUGCAUAGUAUUUAGUUA,0.00104 ± 0.01
14,UCCUGGAUCAGCUUUCAUAGUAUUUAGUUA,0.000585 ± 0.016
